Source: PubChem BioAssay AID1745850 (National Center for Advancing Translational Sciences (NCATS), 2022)
Out of some 2,100 compounds screened, about 260 (12%) were called active. This list was built around the results that the source calls inconclusive (neither active nor inactive); the mix of calls is not that of the screen. Calls follow the shape of the dose curve; as a rule, active = well fitted cell-killing curve with a large enough effect; inconclusive = small, poorly fitted or top-dose-only effect, or effect the other way; inactive = flat fitted curve, though single readings scatter. Potencies of inconclusive entries are doubtful fits and often do not repeat.

Assay: Viability Counterscreen for Confirmatory qHTS for Inhibitors of ATXN expression; also: nearly all actives have a fitted effect of over 50% in size
Conditions: HEK-293 ATXN2-luc cells viability, CellTiter-Fluor, 24 h; activity change, negative = cytotoxicity: at 11.5 µM (top of the series) unless noted
Method in brief: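 Luminescence read-out (SteadyGlo, 5 min) followed a 30 min Gly-Phe-AFC (25 uM final) viability fluorescence read. ATXN2-luciferase reporter cells were exposed 24 h to a dilution series. Medium-only wells served as the 100% inhibition reference.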
Potency is read from the fitted curve at half-maximal effect.

Which Potency does the source give for `Cc1[nH]c(=O)c(C(=O)/C=C/c2ccccc2)c2c1CCCC2` here?
Its Potency is active: 20 µM.

For `COC(/C(=N/O)c1ccc(Cl)cc1)c1ccccc1` (stereo not given), which Potency is on record?
Its Potency is inconclusive: 39.8 µM [cytotoxic, single point].

With `CCCCC(=O)NC(c1ccccc1)c1ccc2cccnc2c1O` (stereo not given) as the compound, how does the Potency read?
The Potency was inconclusive: 8.91 µM [cytotoxic, full curve].

For `Cc1csc(NC(=O)COCC(=O)O)c1-c1nc2ccccc2s1`, which Potency is on record?
The Potency was inconclusive: 28.2 µM [cytotoxic, partial curve, poor fit].

With `O=C(Nc1ccccc1Cl)N1CCCN(c2nc(-c3ccccc3)ns2)CC1` as the compound, how does the Potency read?
Its Potency is inconclusive: 39.8 µM [cytotoxic, single point].

With `COc1ccc(-n2cc(CN(C)C(C)c3ccncn3)c(-c3cccc(F)c3)n2)cc1` (stereo not given) as the compound, how does the Potency read?
The Potency was inconclusive: 39.8 µM [cytotoxic, single point].

For `O=C(Nc1cccc(Cl)c1)c1ccc2c(c1)SC1=NS(=O)(=O)CCN12`, which “activity change, negative = cytotoxicity” value is on record?
Its value is inactive: -19.6%.

Which “activity change, negative = cytotoxicity” value does the source give for `CCC(=O)OC1(C(C)=O)CCC2C3CCC4=CC(=O)CCC4(C)C3CCC21C` (stereo not given) here?
Its value is inactive: -8.08% [at 57.5 µM].

Which “activity change, negative = cytotoxicity” value does the source give for `CCOC(=O)c1c(NC(=O)COC(=O)Cn2cnc3ccccc32)sc(C)c1C` here?
Its value is inactive: -16.8% [at 57.5 µM].

For `CCC(=O)NC(c1ccc(Cl)cc1Cl)c1ccc2cccnc2c1O` (stereo not given), which Potency is on record?
Its Potency is active: 7.94 µM.

Which Potency does the source give for `Cc1ccc(NS(=O)(=O)c2ccc(NC(=O)C(C)Sc3ccc(Cl)cc3)cc2)c(C)c1` (stereo not given) here?
The Potency was inconclusive: 39.8 µM [cytotoxic, single point].

For `O=C(Nc1nc(-c2ccccn2)cs1)c1ccc(F)c(S(=O)(=O)N2CCOCC2)c1`, which Potency is on record?
The Potency was inconclusive: 10 µM [cytotoxic, partial curve].

For `Cc1c(N/N=C(\C#N)C(=O)c2ccc(Cl)cc2)c(=O)n(-c2ccccc2)n1C`, which Potency is on record?
The Potency was inconclusive: 3.16 µM [cytotoxic, partial curve, poor fit].

Which “activity change, negative = cytotoxicity” value does the source give for `COc1ccc(O)c(/C=N/NC(=O)CSc2nnc(C)n2-c2ccccc2)c1` here?
Its value is inactive: -23.6%.

With `COc1cc(-c2cc3nc(NCc4cccc(Cl)c4)ccn3n2)cc(OC)c1OC` as the compound, how does the Potency read?
The Potency was inconclusive: 3.55 µM [cytotoxic, single point].

With `O=C(Nc1ccc(N2CCOCC2)c(Cl)c1)c1c(F)c(F)c(F)c(F)c1F` as the compound, how does the “activity change, negative = cytotoxicity” value read?
Its value is inactive: -11%.

With `O=C(c1ccco1)N1CCN(c2ncnc3scc(-c4cccs4)c23)CC1` as the compound, how does the “activity change, negative = cytotoxicity” value read?
Its value is inactive: -14.1%.

Which Potency does the source give for `CC(C)N(C(=O)COC(=O)c1ccccc1C(=O)c1ccc(Cl)c([N+](=O)[O-])c1)C(C)C` here?
The Potency was inconclusive: 3.55 µM [cytotoxic, single point].

With `O=S(=O)(c1ccc2nc(COc3ccc(Cl)cc3Cl)[nH]c2c1)N1CCOCC1` as the compound, how does the “activity change, negative = cytotoxicity” value read?
The value was inactive: 3.51%.

Which “activity change, negative = cytotoxicity” value does the source give for `Cc1ccc(-c2nc3cc(Br)cnc3nc2-c2ccc(C)cc2)cc1` here?
The value was inactive: -4.19%.

Which Potency does the source give for `C=CCc1ccccc1OCC(O)CN1CCN(CCN2C(=O)c3cccc4cccc(c34)C2=O)CC1` (stereo not given) here?
Its Potency is active: 31.6 µM.

For `Cc1ccc2nc(SCc3ccc([N+](=O)[O-])cc3)[nH]c2c1`, which “activity change, negative = cytotoxicity” value is on record?
The value was inactive: -12.6%.

For `O=C(C1CCC(CNS(=O)(=O)c2cccs2)CC1)N1CCN(c2ccc(F)cc2)CC1` (stereo not given), which “activity change, negative = cytotoxicity” value is on record?
Its value is inactive: -23%.

Which Potency does the source give for `CC1C(=O)C(C)C(c2cc(Br)ccc2O)NC1c1cc(Br)ccc1O` (stereo not given) here?
Its Potency is inconclusive: 25.1 µM [cytotoxic, single point].

For `CC1(C)COCN1S(=O)(=O)c1ccc(C(=O)Nc2nnc(-c3ccc(Cl)s3)o2)cc1`, which “activity change, negative = cytotoxicity” value is on record?
The value was inactive: -17.8%.

Which Potency does the source give for `Cc1ccc(C)c(/C=C/C(=O)c2ccccc(=O)c2O)c1` here?
Its Potency is inconclusive: 39.8 µM [cytotoxic, single point].

With `Cc1cc(N/N=C\c2ccc(Br)cc2)nc(-n2nc(C)cc2C)n1` as the compound, how does the Potency read?
The Potency was inconclusive: 10 µM [cytotoxic, partial curve].

With `CC1Sc2ccc(S(=O)(=O)CCC(=O)N3CCN(c4cccc(Cl)c4)CC3)cc2NC1=O` (stereo not given) as the compound, how does the Potency read?
The Potency was inconclusive: 25.1 µM [cytotoxic, single point].

With `Cn1c(SCc2ccc(C(C)(C)C)cc2)nnc1C1COc2ccccc2O1` (stereo not given) as the compound, how does the “activity change, negative = cytotoxicity” value read?
Its value is inactive: -21.7%.

Which Potency does the source give for `COc1cccc(/C=N/NC(=O)CSCC(=O)Nc2ccccc2)c1O` here?
The Potency was inconclusive: 2.51 µM [cytotoxic, partial curve].

With `CCCC[C@@H](CNC)NC[C@H](NCCCCC1CCCCC1)C(C)C` as the compound, how does the Potency read?
The Potency was inconclusive: 31.6 µM [cytotoxic, single point].

Which Potency does the source give for `CNC(=O)c1sc(N2N=C3/C(=C/c4ccccc4)CCCC3C2c2ccccc2)nc1C` (stereo not given) here?
Its Potency is inconclusive: 31.6 µM [rising, single point].

With `O=C(Nc1cccc(-c2cccc(Cl)c2)c1)C1CCN(Cc2ccccn2)CC1` as the compound, how does the Potency read?
Its Potency is inconclusive: 25.1 µM [cytotoxic, single point].

For `CC(=O)Oc1c(Br)cc(N(C(C)=O)S(=O)(=O)c2ccccc2)c2ccccc12`, which Potency is on record?
The Potency was active: 28.2 µM.

For `Cc1cc(/C=N/n2cnnc2)c(C)n1-c1ccc(OCc2ccc(Cl)cc2Cl)cc1`, which Potency is on record?
The Potency was active: 28.2 µM.

For `Oc1c(C(c2ccccn2)N2CCC(Cc3ccccc3)CC2)cc(Cl)c2cccnc12` (stereo not given), which Potency is on record?
Its Potency is active: 25.1 µM.

Which Potency does the source give for `COc1ccc(NC(=O)c2oc3ccc(S(=O)(=O)N4CCC5(CC4)OCCO5)cc3c2C)cc1` here?
The Potency was inconclusive: 7.08 µM [cytotoxic, single point].

With `Cc1ccc(CN2CCSc3ccc(C(=O)NC4CCN(Cc5ccccc5)CC4)cc32)cc1` as the compound, how does the Potency read?
Its Potency is inconclusive: 3.16 µM [cytotoxic, single point].

For `O=c1cc(-c2ccncc2)oc2c1ccc1ccccc12`, which Potency is on record?
Its Potency is inconclusive: 28.2 µM [cytotoxic, single point].

With `COc1cc(CNCc2ccncc2)cc(Br)c1OCc1ccccc1F` as the compound, how does the “activity change, negative = cytotoxicity” value read?
Its value is inactive: -7.84%.

Which Potency does the source give for `COc1ccccc1-c1cc(NC=O)c2ncc(-c3ccc(F)cc3)n2c1` here?
The Potency was inconclusive: 22.4 µM [cytotoxic, single point].

With `CC1CCC(CN2C(Nc3ccccc3)=NC[C@@H]2Cc2ccccc2)CC1` (stereo not given in full) as the compound, how does the Potency read?
The Potency was inconclusive: 25.1 µM [cytotoxic, single point].

For `Cc1cnc(NC(=O)CN2CCN(c3ccccn3)CC2)s1`, which Potency is on record?
The Potency was inconclusive: 20 µM [cytotoxic, partial curve, poor fit].

For `NNc1ncnc2scc(-c3ccc(Cl)cc3)c12`, which Potency is on record?
The Potency was inconclusive: 28.2 µM [cytotoxic, single point].

For `NC1=NC[C@H](Cc2ccccc2)N1CCCCC1CCCCC1`, which “activity change, negative = cytotoxicity” value is on record?
The value was inactive: -14.5%.
